# Literature values as cited in US20120082623A1, “SHH Regulation and Methods Thereof” (priority 2009, published 2012).
# For at least one compound, name, drawing or mass did not settle the structure.
# System: SVZ derived EGFR+ cells
# Conditions: neurospheres, dose dependent manner; cited from earlier work
smiles,measurement,value
CC(C)C[C@H]1C(=O)N2CCC[C@H]2[C@]2(O)O[C@](NC(=O)[C@@H]3C=C4c5cccc6[nH]c(Br)c(c56)C[C@H]4N(C)C3)(C(C)C)C(=O)N12 [bromocriptine],proliferation of SVZ derived EGFR+ cells,increased the proliferation of SVZ derived EGFR+ cells
